PubChem BioAssay AID1259425 – University of Nebraska Medical Center | 2018

Test: 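Compare each knockdown with KSR1 silencing using changes in marker transcripts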 (primary screen)
Cell system: HCT116 human colon cancer cells
Reagents: siRNA pool against human genes, 50 nM siRNA
Measurement: 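After 50 nM siRNA pool, branched-DNA assay measures six marker transcripts per well, minus blank, normalised to the geometric mean of two housekeeping transcripts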
Reading the numbers: BNIP3L mRNA: higher = more BNIP3L transcript after knockdown; NDRG1 mRNA: higher = more NDRG1 transcript after knockdown
Here is one part, drawn at random, of about 14,000 deposited reagents. Not all columns of the deposit are shown. Not given: the time to read-out.

KCNJ1 (GeneID 3758) showed BNIP3L mRNA, set 1 = 0.135; NDRG1 mRNA, set 1 = 0.146.
For PAX9 (GeneID 5083), the entry reads BNIP3L mRNA, set 1 = 0.106; NDRG1 mRNA, set 1 = 0.127.
Silencing of SHROOM2 (GeneID 357) resulted in: BNIP3L mRNA, set 1 = 0.149; NDRG1 mRNA, set 1 = 0.377.
With knock-down of DSTN (GeneID 11034) the results were BNIP3L mRNA, set 1 = 0.0616; NDRG1 mRNA, set 1 = 0.247.
Against HMBS (GeneID 3145), the values are BNIP3L mRNA, set 1 = 0.0705; NDRG1 mRNA, set 1 = 0.186.
With knock-down of GNA11 (GeneID 2767), the record shows BNIP3L mRNA, set 1 = 0.247; NDRG1 mRNA, set 1 = 0.178.
For GGCT (GeneID 79017) the deposit lists BNIP3L mRNA, set 1 = 0.0944; NDRG1 mRNA, set 1 = 0.223.
For MAGEA2 (GeneID 4101) the deposit lists BNIP3L mRNA, set 1 = 0.0915; NDRG1 mRNA, set 1 = 0.956.
ITGB1BP2 (GeneID 26548) scored BNIP3L mRNA, set 1 = 0.0807; NDRG1 mRNA, set 1 = 0.205.
For SLC17A6 (GeneID 57084) the deposit lists BNIP3L mRNA, set 1 = 0.053; NDRG1 mRNA, set 1 = 0.119.
For SMOC2 (GeneID 64094) the deposit lists BNIP3L mRNA, set 1 = 0.075; NDRG1 mRNA, set 1 = 0.069.
Depletion of FAM13A (GeneID 10144) came out at: BNIP3L mRNA, set 1 = 0.142; NDRG1 mRNA, set 1 = 0.21.
After knock-down of VPS8 (GeneID 23355), the record shows BNIP3L mRNA, set 1 = 0.146; NDRG1 mRNA, set 1 = 0.172.
Silencing of EIF1AY (GeneID 9086) resulted in: BNIP3L mRNA, set 1 = 0.056; NDRG1 mRNA, set 1 = 0.107.
Depletion of BTBD10 (GeneID 84280) came out at: BNIP3L mRNA, set 1 = 0.154; NDRG1 mRNA, set 1 = 0.209.
Against GPR78 (GeneID 27201), the entry reads BNIP3L mRNA, set 1 = 0.264; NDRG1 mRNA, set 1 = 0.727.
For SPATC1L (GeneID 84221) the deposit lists BNIP3L mRNA, set 1 = 0.119; NDRG1 mRNA, set 1 = 0.115.
For GLO1 (GeneID 2739), the values are BNIP3L mRNA, set 1 = 0.124; NDRG1 mRNA, set 1 = 0.411.
After knock-down of CCNP (GeneID 79935) the results were BNIP3L mRNA, set 1 = 0.0833; NDRG1 mRNA, set 1 = 0.198.
